Data as given in article PMC3366916, “Characterization of a Conserved Interaction between DNA Glycosylase and ParA in Mycobacterium smegmatis and M. tuberculosis” (PLoS ONE, 2012).
No constants are given. Whether binding was seen depends on the method and setting. Binding can be weak; no strength is given. Tags and fused reporters may be left off the sequences shown. For some of these results: Binding seen in cells or lysates may run through a third protein.

Protein sequences, listed by entry. Tags and fused reporters are not part of them. Lines headed by an entry give the natural chain unless they say otherwise; changes in a name come on top.
UniProt A0R7J4: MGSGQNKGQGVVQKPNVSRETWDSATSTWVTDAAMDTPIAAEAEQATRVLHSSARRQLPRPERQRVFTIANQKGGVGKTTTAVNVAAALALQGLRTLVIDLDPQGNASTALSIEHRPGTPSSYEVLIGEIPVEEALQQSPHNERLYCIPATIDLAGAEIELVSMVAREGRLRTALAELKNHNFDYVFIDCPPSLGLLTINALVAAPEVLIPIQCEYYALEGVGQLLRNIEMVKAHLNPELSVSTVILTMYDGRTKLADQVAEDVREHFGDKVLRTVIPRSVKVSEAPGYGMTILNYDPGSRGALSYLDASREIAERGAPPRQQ

T1: His-tagged MsTAG (M. smegmatis) (UniProt A0R2E4)
T1 sequence: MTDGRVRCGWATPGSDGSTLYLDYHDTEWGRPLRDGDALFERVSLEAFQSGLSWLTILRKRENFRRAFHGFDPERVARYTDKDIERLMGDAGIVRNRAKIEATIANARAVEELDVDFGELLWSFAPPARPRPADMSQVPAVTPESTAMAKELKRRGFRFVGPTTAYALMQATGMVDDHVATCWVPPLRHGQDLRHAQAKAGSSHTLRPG


Columns and labels:
[1] = molecular target: T1, His-tagged MsTAG (M. smegmatis); experiment: pull-down; equimolar GST-MsParA and His-tagged MsTAG mixed 2 h at 4°C in 20 mM Tris-HCl, 500 mM NaCl, 5 mM imidazole, pH 7.9; captured on Ni-NTA agarose, eluted with 250 mM imidazole; blot with anti-GST; both purified
[2] = molecular target: MsParA (Ms6939), bacterial two-hybrid fusion (M. smegmatis); experiment: two-hybrid; bacterial two-hybrid (BacterioMatch II, pBT and pTRG, E. coli XR reporter strain); growth on Selective Screening Medium with 5 mM 3-AT and 8 µg/ml streptomycin
[3] = molecular target: MsParA (Ms6939), endogenous in M. smegmatis (M. smegmatis (endogenous in M. smegmatis)) (UniProt A0R7J4); experiment: co-IP; M. smegmatis cells with the TAG expression plasmid fixed with 1% formaldehyde; extract in TBSTT buffer incubated with MsParA antiserum and protein A Sepharose at 4°C; blot with anti-MsTAG antibody

binding [3] | Molecule | also measured
– | GST-MsParA (from UniProt A0R7J4) | binding [1]: binds
– | 3-methyladenine DNA glycosylase I MsTAG (Ms5082), bacterial two-hybrid fusion (enzyme, UniProt A0R2E4 1-209) MTDGRVRCGWATPGSDGSTLYLDYHDTEWGRPLRDGDALFERVSLEAFQSGLSWLTILRKRENFRRAFHGFDPERVARYTDKDIERLMGDAGIVRNRAKIEATIANARAVEELDVDFGELLWSFAPPARPRPADMSQVPAVTPESTAMAKELKRRGFRFVGPTTAYALMQATGMVDDHVATCWVPPLRHGQDLRHAQAKAGSSHTLRPG | binding [2]: binds
binds | MsTAG-E46A expressed in M. smegmatis (enzyme, UniProt A0R2E4 1-209) MTDGRVRCGWATPGSDGSTLYLDYHDTEWGRPLRDGDALFERVSLAAFQSGLSWLTILRKRENFRRAFHGFDPERVARYTDKDIERLMGDAGIVRNRAKIEATIANARAVEELDVDFGELLWSFAPPARPRPADMSQVPAVTPESTAMAKELKRRGFRFVGPTTAYALMQATGMVDDHVATCWVPPLRHGQDLRHAQAKAGSSHTLRPG | –
binds | MsTAG (Ms5082) expressed in M. smegmatis (enzyme, UniProt A0R2E4 1-209) MTDGRVRCGWATPGSDGSTLYLDYHDTEWGRPLRDGDALFERVSLEAFQSGLSWLTILRKRENFRRAFHGFDPERVARYTDKDIERLMGDAGIVRNRAKIEATIANARAVEELDVDFGELLWSFAPPARPRPADMSQVPAVTPESTAMAKELKRRGFRFVGPTTAYALMQATGMVDDHVATCWVPPLRHGQDLRHAQAKAGSSHTLRPG | –
